Experimental data: PubChem BioAssay AID743454 (Peter MacCallum Cancer Centre, 2014)

Screen: 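Search for knock-downs that restore vorinostat killing in resistant colon cancer cells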 (primary screen)
System: human HCT116-VR colon cancer cells, selected for vorinostat resistance
Knock-down reagent: siRNA pool against human genes, 40 nM siRNA pool
Timing: vorinostat for 24 h, read-out about 72 h after transfection
Challenge: vorinostat at 2.5 µM final
Measurement: 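Cell viability by CellTiter-Fluor and caspase 3/7 activity by luminescence, each scaled to mock wells per plate, duplicates averaged, then robust z-scored over all plates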
Scale: viability robust z-score: higher = more viable cells than screen typical; caspase robust z-score: higher = more caspase 3/7 activity than screen typical
Call rule: 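Hits are knock-downs in viability class RV1/RV2 or caspase class CA1/CA2, excluding ones that killed cells in the no-drug cell-count arm; hits then retested with single siRNAs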
The deposit covers about 18,000 reagents; this is an unselected part. In the full data, 450 (2.5%) were called active. 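Single biological run; no consistent viability z cut-off exists, so the class columns, not z-scores, define the calls.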 No sequences are given here.

With knock-down of DLGAP1 (GeneID 9229), the screen gave viability hit class no change; caspase hit class no change; viability robust z-score 0.73; caspase robust z-score -0.34; inactive.
Knock-down of SBNO2 (GeneID 22904) resulted in: viability hit class no change; caspase hit class no change; viability robust z-score 0.24; caspase robust z-score 0.16; inactive.
For RGL3 (GeneID 57139) the deposit lists viability hit class no change; caspase hit class no change; viability robust z-score -0.7; caspase robust z-score 2.13; inactive.
Silencing of PRL (GeneID 5617) resulted in: viability hit class no change; caspase hit class no change; viability robust z-score -2.07; caspase robust z-score 3.29; inactive.
With knock-down of RAE1 (GeneID 8480), the screen gave viability hit class no change; caspase hit class no change; viability robust z-score -3.64; caspase robust z-score 1.87; inactive.
Silencing of RCE1 (GeneID 9986) gave: viability hit class no change; caspase hit class CA1 (caspase activation); viability robust z-score -0.07; caspase robust z-score 5.32; active.
With knock-down of PRKAG2 (GeneID 51422), the screen gave viability hit class no change; caspase hit class no change; viability robust z-score 0.34; caspase robust z-score 1.32; inactive.
After knock-down of PDGFC (GeneID 56034), the record shows viability hit class no change; caspase hit class no change; viability robust z-score 0.11; caspase robust z-score -1.09; inactive.
After knock-down of ULK1 (GeneID 8408) the results were viability hit class no change; caspase hit class no change; viability robust z-score 0.77; caspase robust z-score -0.44; inactive.
With knock-down of WDCP (GeneID 80304), the record shows viability hit class no change; caspase hit class no change; viability robust z-score 0.48; caspase robust z-score 0.24; inactive.
After knock-down of IKBKE (GeneID 9641) the results were viability hit class no change; caspase hit class no change; viability robust z-score -0.96; caspase robust z-score 1.44; inactive.
ATP7A (GeneID 538) gave viability hit class no change; caspase hit class no change; viability robust z-score -0.82; caspase robust z-score -0.68; inactive.
PLPP7 (GeneID 84814) gave viability hit class no change; caspase hit class no change; viability robust z-score -1.31; caspase robust z-score 0.52; inactive.
Silencing of PTPRN2 (GeneID 5799) gave: viability hit class no change; caspase hit class no change; viability robust z-score 0.01; caspase robust z-score 0.24; inactive.
Silencing of CD40 (GeneID 958) resulted in: viability hit class no change; caspase hit class no change; viability robust z-score -0.3; caspase robust z-score -1.3; inactive.
For MARK1 (GeneID 4139), the values are viability hit class no change; caspase hit class no change; viability robust z-score -0.03; caspase robust z-score -0.1; inactive.
For KRT39 (GeneID 390792), the values are viability hit class no change; caspase hit class no change; viability robust z-score 0.26; caspase robust z-score -0.08; inactive.
CDR2L (GeneID 30850) gave viability hit class no change; caspase hit class no change; viability robust z-score 0.29; caspase robust z-score 0.76; inactive.
For NSMCE2 (GeneID 286053), the entry reads viability hit class no change; caspase hit class no change; viability robust z-score -2.37; caspase robust z-score 1.29; inactive.
After knock-down of CCT2 (GeneID 10576), the screen gave viability hit class no change; caspase hit class no change; viability robust z-score -0.52; caspase robust z-score 1.1; inactive.
For GRN (GeneID 2896), the entry reads viability hit class no change; caspase hit class no change; viability robust z-score -0.37; caspase robust z-score -0.12; inactive.

Ordered by “caspase robust z-score” (ascending): some entries from above
CDR2L (GeneID 30850) → viability hit class: no change; caspase hit class: no change; viability robust z-score: 0.29; caspase robust z-score: 0.76; Outcome: inactive
NSMCE2 (GeneID 286053) → viability hit class: no change; caspase hit class: no change; viability robust z-score: -2.37; caspase robust z-score: 1.29; Outcome: inactive
